Test [1] concerns the target T1, γ1-COP-ultraID (γ1-COP subunit of coatomer with ultraID fused to its C-terminus) (UniProt Q9QZE5).
T1 sequence: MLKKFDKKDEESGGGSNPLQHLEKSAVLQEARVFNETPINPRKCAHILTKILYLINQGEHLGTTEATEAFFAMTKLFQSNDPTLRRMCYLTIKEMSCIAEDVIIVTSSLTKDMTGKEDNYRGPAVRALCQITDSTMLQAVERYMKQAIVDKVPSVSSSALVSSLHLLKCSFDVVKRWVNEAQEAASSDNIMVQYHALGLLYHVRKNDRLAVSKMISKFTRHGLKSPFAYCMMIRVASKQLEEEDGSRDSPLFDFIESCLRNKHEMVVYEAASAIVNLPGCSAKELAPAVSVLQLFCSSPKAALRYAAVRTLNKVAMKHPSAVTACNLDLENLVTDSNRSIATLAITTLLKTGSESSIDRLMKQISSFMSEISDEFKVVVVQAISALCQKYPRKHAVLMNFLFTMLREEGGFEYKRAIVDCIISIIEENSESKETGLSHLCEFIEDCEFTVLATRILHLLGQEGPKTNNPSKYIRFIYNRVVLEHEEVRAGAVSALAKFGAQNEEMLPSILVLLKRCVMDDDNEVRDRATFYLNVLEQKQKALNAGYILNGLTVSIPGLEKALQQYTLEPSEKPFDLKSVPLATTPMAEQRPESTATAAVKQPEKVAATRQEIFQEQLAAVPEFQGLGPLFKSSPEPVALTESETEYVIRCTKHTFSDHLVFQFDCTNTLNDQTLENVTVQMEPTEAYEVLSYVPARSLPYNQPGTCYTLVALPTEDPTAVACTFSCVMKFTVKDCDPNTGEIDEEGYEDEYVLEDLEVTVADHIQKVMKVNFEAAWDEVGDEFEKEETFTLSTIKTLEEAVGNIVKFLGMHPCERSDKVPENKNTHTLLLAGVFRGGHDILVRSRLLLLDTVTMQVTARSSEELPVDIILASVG
The test is described as follows: proximity labelling.

Test [2] deals with T2, γ2-COP-ultraID (γ2-COP subunit of coatomer with ultraID fused to its C-terminus) (UniProt Q9QXK3).
T2 sequence: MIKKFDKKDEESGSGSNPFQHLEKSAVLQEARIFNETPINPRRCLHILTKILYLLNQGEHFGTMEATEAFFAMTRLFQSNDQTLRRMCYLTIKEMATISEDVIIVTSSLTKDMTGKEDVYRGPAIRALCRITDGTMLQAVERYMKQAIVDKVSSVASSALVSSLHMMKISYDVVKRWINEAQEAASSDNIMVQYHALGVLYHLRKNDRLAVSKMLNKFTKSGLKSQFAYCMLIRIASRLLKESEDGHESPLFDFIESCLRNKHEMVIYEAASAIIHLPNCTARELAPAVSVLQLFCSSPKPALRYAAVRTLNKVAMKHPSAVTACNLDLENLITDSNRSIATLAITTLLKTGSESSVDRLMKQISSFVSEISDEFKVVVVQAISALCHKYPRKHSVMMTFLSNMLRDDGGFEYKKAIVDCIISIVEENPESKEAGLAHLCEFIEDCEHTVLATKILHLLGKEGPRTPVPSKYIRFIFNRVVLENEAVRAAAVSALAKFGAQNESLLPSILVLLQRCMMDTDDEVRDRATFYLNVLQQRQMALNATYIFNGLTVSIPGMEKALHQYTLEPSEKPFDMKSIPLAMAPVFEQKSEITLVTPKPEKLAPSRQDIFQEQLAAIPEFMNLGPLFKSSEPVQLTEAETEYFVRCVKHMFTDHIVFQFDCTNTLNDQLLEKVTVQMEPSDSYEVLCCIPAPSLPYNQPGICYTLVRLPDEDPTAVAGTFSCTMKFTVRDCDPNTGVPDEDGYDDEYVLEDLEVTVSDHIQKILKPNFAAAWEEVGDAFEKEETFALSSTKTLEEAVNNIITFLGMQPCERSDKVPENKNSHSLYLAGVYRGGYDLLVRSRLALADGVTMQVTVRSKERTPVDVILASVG
The test is described as follows: proximity labelling.

For seven molecules, binding results are on record in doi:10.1101/2021.06.16.448656.

No constants are given. Whether binding was seen depends on the method and setting. In cells and extracts the contact can be indirect. Here binding means that the protein was enriched with, or labelled near, the bait; the list need not be complete. Sequences can lack the tags named with a protein.

B1: TMEM165 (protein, UniProt P52875 34-323)
chain: GPEEDLSHRNQEPPAPAQQLQPQPAAVQGLEPARAEKGLTPVAPVHTNKEDAAAQTNLGFIHAFVAAISVIIVSELGDKTFFIAAIMAMRYNRLTVLAGAMLALALMTCLSVLFGYATTVIPRVYTYYVSTALFAIFGIRMLREGLKMSPDEGQEELEEVQAELKKKDEEFQRTKLLNGPDVETGTSTAIPQKKWLHFISPIFVQALTLTFLAEWGDRSQLTTIVLAAREDPYGVAVGGTVGHCLCTGLAVIGGRMIAQKISVRTVTIIGGIVFLAFAFSALFISPESGF
As to B1, the binding result in test [1] is “binds”.

B2: ERGIC-53 (protein, UniProt Q9D0F3 31-517)
chain: DGTGGDAAAPGAAGTQAELPHRRFEYKYSFKGPHLVQSDGTVPFWAHAGNAIPSADQIRIAPSLKSQRGSVWTKAKAAFENWEVEVTFRVTGRGRIGADGLAIWYTENQGLDGPVFGSADTWNGVGIFFDSFDNDGKKNNPAIVVIGNNGQINYDHQNDGATQALASCQRDFRNKPYPVRAKITYYQKTLTVMINNGFTPDKNDYEFCAKVENMVIPTQGHFGISAATGGLADDHDVLSFLTFQLTEPGKEPPTAEKDISEKEKEKYQEEFEHFQQELDKKKEEFQKGHPDLQGQPADDIFESIGDRELRQVFEGQNRIHLEIKQLNRQLDMILDEQRRYVSSLTEEISRRGAGTPGQPGQVSQQELDTVVKSQQEILRQVNEVKNSMSETVRLVSGIQHPGSAGVYETTQHFMDIKEHLHVVKRDIDSLAQRSMPSNEKPKCPDLPPFPSCLSTIHFVIFVVVQTVLFVGYIMYRTQQEAAAKKFF
Consider B2, for which, in test [1], the binding result is “binds”.

B3: WWOX (protein, UniProt Q91WL8 1-414)
chain: MAALRYAGLDDTDSEDELPPGWEERTTKDGWVYYANHTEEKTQWEHPKTGKRKRVAGDLPYGWEQETDENGQVFFVDHINKRTTYLDPRLAFTVDDNPTKPTTRQRYDGSTTAMEILQGRDFTGKVVLVTGANSGIGFETAKSFALHGAHVILACRNLSRASEAVSRILEEWHKAKVEAMTLDLAVLRSVQHFAEAFKAKNVSLHVLVCNAGTFALPWGLTKDGLETTFQVNHLGHFYLVQLLQDVLCRSSPARVIVVSSESHRFTDINDSSGKLDLSRLSPPRSDYWAMLAYNRSKLCNILFSNELHRRLSPRGVTSNAVHPGNMMYSAIHRNSWVYKLLFTLARPFTKSMQQGAATTVYCAVAPELEGLGGMYFNNCCRCLPSEEAQSEETARALWELSERLIQDRLGSPSS
Turning to B3, the binding entry in test [1] was “binds”.

B4: GOS-28 (protein, UniProt O88630 1-250)
chain: MAAGTSNYWEDLRKQARQLENELDLKLVSFSKLCTSYSHSGSRDGGRDRYSSDTTPLLNGSSQDRMFETMAIEIEQLLARLTGVNDKMAEYTHSAGVPSLNAALMHTLQRHRDILQDYTHEFHKTKANFTAIRERENLMGSVRKDIESYKSGSGVNNRRTELFLKEHDHLRNSDRLIEETISIAMATKENMTSQRGMLKSIHSKMNTLANRFPAVNSLIQRINLRKRRDSLILGGVIGICTILLLLYAFH
On to B4, for which the binding entry in test [2] and in test [1] was “binds” each time.

B5: golgin-84 (protein, UniProt Q9QYE6 1-729)
chain: MSWFADLAGRAEDLLNRVDQGAATALRKENTSNIFYSKNTDYPELQQQNTDSNYQTGQKANYISSAADNIRHQKATILAGTANVKVGSRTVGDATHPTEHASAPRPSSQFVRRKKSEPDDELLFDFLNSSQKEPTGRVEVKKEKGRAPVSPSSPSGVSSVNTSVTTTKAMGGNAGSQSPGVNSSDSVPEVHKEPSEESTAPSATSEEHSSTPSDGSSRSQELSNLRLENQLLRNEVQSLNQEMASLLQRSKETQEELNKARVRVEKWNVDNSKSDRITRELRAQVDDLTEAVAAKDSQLAVLKVRLQEADQVLSSRTEALEALRSEKSRIMQDHKEGSSLQNQALQTLQERLHEADATLKREQESYKQMQSEFAARLNKMEVDRQNLAEAVTLAERKYSEEKKKVDELQQQVKLHRASLESAKQELVDYKQKATRILQSKEKLINSLKEGSSFEGLESSTASSMELEELRHEKEMQKEEIQKLMGQMHQLRSELQDMEAQQVSEAESAREQLQDLQDQIAKQRTSKQELETELERMKQEFRYMEEDLHRTKNTLQSRIKDREEEIQKLRNQLTNKTLSNSSQSELESRLHQLTETLIQKQTMLESLSTEKNSLVFQLERLEQQVHSASSGPNSGSAINMSGVDSGEGTRLRNVPVLFNDTETNLAGMYGKVRKAASSIDQFSIRLGIFLRRYPIARVFVIIYMALLHLWVMIVLLTYSPEMHHDQPYGK
For B5, in test [1], the binding result was “binds”.

B6: syntaxin-5 (protein, UniProt Q8K1E0 1-355)
chain: MIPRKRYGSKNTDQGVYLGLSKTQVLSPATAISSSSDSTPLPTPVALVPSPPDTMSCRDRTQEFQSACKSLQSRQNGIQTSKPALHAARQCSEFTLMARRIGKDLSNTFAKLEKLTILAKRKSLFDDKAVEIEELTYIIKQDINSLNKQIAQLQDFVRAKGSQSGRHLQTHSNTIVVSLQSKLASMSNDFKSVLEVRTENLKQQRNRREQFSRAPVSALPLAPNNLGGGPIILGAESRASRDVAIDMMDPRTSQQLQLIDEQDSYIQSRADTMQNIESTIVELGSIFQQLAHMVKEQEETIQRIDENVLGAQLDVEAAHSEILKYFQSVTSNRWLMVKIFLILIVFFIIFVVFLA
On to B6, for which the binding result in test [2] and in test [1] was “binds” in each case.

B7: Scyl3 (protein, UniProt Q9DBQ7 1-735)
chain: MGSENSALKSYTLRESPFTLPSGLAVYPAILQDGKCASVFVYKRENEDKVNKAAKHLKTLRHPCLLRFLSCTVEADGIHLVTERVQPLEVALETLSPAEVCAGIYDILLALIFLHDRGHLTHNNVCLSSVFVSEDGHWKLGGMETVCQVPQATPEFLRNIQSVRDPASIPPEEMSPEFSGLPESHGHARDAYAFGALVDSLLPIFNEQVSADVLSSFLQILHSALLNPMPECRPALSTLLSHDFFRNDFLEVVNFLKSLTLKSEDEKTEFFKFLLDRVSCLSEELIASRLVPLLLNQLVFAEPVAVKSFLPYLLGPKKENAPGETPCLLSPALFQSRVIPVLLRLFEVHEEHVRMVLLSHIEAYVEHFTQEQLKKVILPQVLLGLRDTSNSIVAITLRSLAVLVSLLGPEVVVGGERTKIFKRTAPSFTKTSDLSPEGSPMHVVCSQQSRVSKVLEDPSSNVFPKWLSGNVPSSSRKRIQEECYSSLSQTGDQFSHTIKFPMNGLSDVKNTSEDNGSFPAGSNKPEEWPDWSEPEEPEQQPASIHRWPREPCDVAESQHTNLTAEEVTWDDGEASFGTEINSTATASAPVPVTSGGQSTSAALVPLTEESKPLQSSPSSKTSHRQHEEVKPPQVSQERPLKAPSGLGLGEEFTIQVKKKPVQDPELDWFADMIPEIKPSGTFLILPELRTEVMVPDKDNVSSLMQFSSKFAATEMTEGEAEGWEGEELAWEDNNW
Regarding B7, in test [2], the binding result is listed as “binds”.
